Measurements: EP1412028B1, “TETRAHYDROINDOLONE DERIVATIVES LINKED TO ARYLPIPERAZINES” (Spectrum Pharmaceuticals, Inc., priority 2001, dated 2003)

System: Caco-2 cells
Conditions: human

- Papp AP- to- BL: 1.3±0.2 cm/s x 10^6
Compound: CC(C)NCC(O)COc1ccc(CC(N)=O)cc1 (stereo not shown) [Atenolol, reference compound]
